Among the data in the supplement of paper PMC7024190 are log values, retold here.

Structures can show the parent of a compound that is named as a salt. The list shows a part of the results. Single values are uncertain here, since repeats match poorly.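 A first-round screen of about ten thousand compounds sought those raising reporter output, using human embryonic kidney cells briefly transfected with a plasmid carrying a Renilla luciferase gene driven by the HSV-TK promoter.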

In the test the test system is HEK 293FT. Put plainly: log relative Renilla luciferase luminescence (reporter expression vs reference, reference not stated) (log (base not stated)); higher = higher recombinant reporter expression. Particulars: 10 µM; time after transfection 48 h.
On to `COc1ccccc1N1CCN(CCCCN2C(=O)c3ccccc3C2=O)CC1` [NAN-190 hydrobromide], for which the log was 0.0792.
As to `Cc1ccc(/C=C2\CNC/C(=C\c3ccc(C)cc3)C2=O)cc1`, the log was 0.03.
The same measure for `c1ccc(N2CCN(CCCOc3ccc4c(c3)OCO4)CC2)cc1` [BP 554 maleate]: 0.0729; for `NC(=O)Nc1sc(-c2ccc(F)cc2)cc1C(N)=O`: -0.012; for `CC(=O)NCC(=O)N[C@H](CCC(=O)O)C(=O)O` [N-Acetylglycyl-D-glutamic acid]: 0.0389.
Take `CNCC[C@@H](Oc1ccccc1C)c1ccccc1` [Tomoxetine hydrochloride]: the log is -0.0186.
Next, `CCOC(=O)c1c(C)[nH]c2ccc3c(c12)CN1CCc2cc(OC)ccc2C1O3` (centres undefined): -0.0488; `c1cc(CN2CCCCC2)cc(OCCCNc2nc3ccccc3s2)c1` [Zolantidine dimaleate]: 0.00743.
The same measure for `Cc1c[nH]c(=O)n(CCCN2CCN(c3ccccc3OCC(F)(F)F)CC2)c1=O`: 0.0032.
In the case of `CCn1c(=O)[nH]c2ccccc21`, the log was -0.147.
The same measure for `CN(N=O)C(=O)N[C@@H](C=O)[C@@H](O)[C@H](O)[C@H](O)CO` [Streptozocin]: 0.00465; for `N=C(N)SCCc1c[nH]cn1` [Imetit dihydrobromide]: 0.588; for `COC(=O)C(Cc1ccc(OCCn2c(=O)sc3cc(C(=O)c4ccccc4)ccc32)cc1)C(=O)OC`: 0.0419.
Take `COc1ccc2[nH]cc(CCNC(C)=O)c2c1` [Melatonin]: the log worked out at 0.0363.
As to `CCCCCCCC/C=C\CCCCCCCC(N)=O` [Oleamide], the log was -0.173.
Next, `Cc1ccc(C(=O)Nc2ccc(S(=O)(=O)O)c3cc(S(=O)(=O)O)cc(S(=O)(=O)O)c23)cc1NC(=O)c1cccc(NC(=O)Nc2cccc(C(=O)Nc3cc(C(=O)Nc4ccc(S(=O)(=O)O)c5cc(S(=O)(=O)O)cc(S(=O)(=O)O)c45)ccc3C)c2)c1` [Suramin hexasodium salt]: 0.114; `NS(=O)(=O)c1cccc2c1c([N+](=O)[O-])cc1nc(O)c(O)nc12`: 0.0674; `COc1cc(Br)c(S(=O)(=O)Nc2ccc(Cl)c(O[C@@H]3CCN(C)C3)c2)cc1OC`: 0.0554.
Turning to `O=C(O)CCc1ccc(NCc2cccc(Oc3ccccc3)c2)cc1`, the log was -0.0364.
For the compound `CCC(C)(C)C(=O)O[C@H]1C[C@@H](C)C=C2C=C[C@H](C)[C@H](CC[C@@H]3C[C@@H](O)CC(=O)O3)[C@H]21` [Simvastatin], the log amounted to 0.0449.
Next, `COc1ccc2[nH]c(-c3ccccc3)c(CCNC(C)=O)c2c1` [2-Phenylmelatonin]: 0.0591.
In the case of `O=C(O)Cc1nn(Cc2ccc(Br)cc2F)c(=O)c2ccccc12` [Statil], the log was found to be 0.0419.
The same measure for `COc1ccc(OC)c2c(=S)c3ccccc3[nH]c12`: -0.0381.
The same measure for `COC1CCC(C(=O)c2ccc3nc4c(cc3c2)CCCO4)CC1` (centres undefined): -0.148.
